Experimental data taken from PubChem BioAssay AID1345085 (National Center for Advancing Translational Sciences (NCATS), 2018).
This list was built around the results that the source calls inconclusive (neither active nor inactive); the mix of calls is not that of the screen. Potencies beside an inconclusive call are fits to weak or partial responses and may not hold up. Activity calls are given as the source filed them. The call rests on the fitted dose curve; in most records, active means well fitted cell-killing curve with a large enough effect; inconclusive means small, poorly fitted or top-dose-only effect, or effect the other way; inactive means no such curve, though single readings can be large or run the other way.

What follows are compounds tested on CASKI (assay: Confirmatory qHTS for gynecologic anti-cancer compounds from libraries of approved drugs and bioactive compounds). Conditions: gynecologic cancer cell panel viability, ATPlite luminescence, 48 h; series mostly up to 57.6 µM.
How it was run: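 1,000 cells/well; 16 h pre-incubation 37 C, 5% CO2; pin-transferred cpd in DMSO, 11 conc (1:3), 57.5 uM–0.977 nM; 48 h; ATPlite, 15 min RT; luminescence → IC50.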
Further: nearly all actives have a fitted effect of over 55% in size.
Potency means the concentration at half of the fitted maximal effect.

Question: Which Potency does the source give for `CN1C(=O)C(Cc2c[nH]c3ccccc23)NC1=S` (stereo unspecified) here?
Answer: inactive

Question: `CCn1c(-c2nonc2N)nc2c(C#CC(C)(C)O)ncc(OCC3CCCNC3)c21` (stereo unspecified) was tested. Which Potency did it give?
Answer: inconclusive: 6.85 µM [rising, partial curve]

Question: Which Potency does the source give for `Cc1nc(Nc2ncc(C(=O)Nc3c(C)cccc3Cl)s2)cc(N2CCN(CCO)CC2)n1` here?
Answer: active: 0.109 µM

Question: `CCN(CC)CCCC(C)Nc1c2ccc(Cl)cc2nc2ccc(OC)cc12` (stereo unspecified) was tested. Which Potency did it give?
Answer: inconclusive: 27.3 µM [cytotoxic, partial curve]

Question: `CC(=O)NCC(=O)N1C2CCC1c1cc(Nc3ncc(C(F)(F)F)c(NC4CCC4)n3)ccc12` (stereo unspecified) was tested. Which Potency did it give?
Answer: active: 9.68 µM

Question: With `Cc1c(C)n(Cc2ccc(-c3ccccc3C(=O)O)cc2)c2ccc(C(=O)N[C@@H](C)c3ccc([N+](=O)[O-])cc3)cc12` as the compound, how does the Potency read?
Answer: inactive

Question: How did the Potency turn out when `Cn1cc(-c2[nH]c3cc(NC(=O)[C@H](N)C4CCCCC4)cc4c3c2C=NNC4=O)cn1` was run?
Answer: inconclusive: 1.37 µM [cytotoxic, full curve]

Question: For `Cc1nc(Nc2n[nH]c3c2CN(C(=O)NC(CN(C)C)c2ccccc2)C3(C)C)c2sccc2n1` (stereo unspecified), which Potency is on record?
Answer: active: 3.06 µM

Question: With `COc1ccc(OC)c(-c2nnc3ccc(-c4ccc(OC)c(O[C@@H]5CCOC5)c4)nn23)c1` as the compound, how does the Potency read?
Answer: inactive

Question: With `COc1cccc2c1C(=O)c1c(O)c3c(c(O)c1C2=O)C[C@@](O)(C(=O)CO)C[C@@H]3O[C@H]1C[C@H](N)[C@H](O[C@@H]2CCCCO2)[C@H](C)O1` as the compound, how does the Potency read?
Answer: active: 17.2 µM

Question: `Cc1cc(Nc2nc(N[C@@H](C)c3ccc(F)cc3)c(C#N)cc2F)n[nH]1` was tested. Which Potency did it give?
Answer: active: 13.7 µM

Question: How did the Potency turn out when `CO[C@@]12[C@H](COC(N)=O)C3=C(C(=O)C(C)=C(N)C3=O)N1C[C@@H]1N[C@@H]12` was run?
Answer: inactive

Question: For `Cc1cnc(CNC(=O)c2c(=O)c3ccc(N4CCCN(C)CC4)nc3n3c2sc2ccccc23)cn1`, which Potency is on record?
Answer: inconclusive: 1.4 µM [rising, partial curve, poor fit]

Question: `CN(Cc1cnc2nc(N)nc(N)c2n1)c1ccc(C(=O)N[C@@H](CCC(=O)O)C(=O)O)cc1` was tested. Which Potency did it give?
Answer: inconclusive: 1.72 µM [cytotoxic, single point]

Question: Which Potency does the source give for `Nc1ncn([C@@H]2O[C@H](CO)[C@@H](O)[C@H]2O)c(=O)n1` here?
Answer: inconclusive: 43.2 µM [cytotoxic, partial curve, poor fit]

Question: For `CCN1CCN(Cc2ccc(Nc3ncc(F)c(-c4cc(F)c5nc(C)n(C(C)C)c5c4)n3)nc2)CC1`, which Potency is on record?
Answer: inconclusive: 10.9 µM [cytotoxic, full curve]

Question: `O=C(O)C1(Cc2cccc(Nc3nccs3)n2)CCC(Oc2cccc(Cl)c2F)CC1` (stereo unspecified) was tested. Which Potency did it give?
Answer: inconclusive: 6.85 µM [cytotoxic, partial curve]

Question: How did the Potency turn out when `CN(NC(=O)CC(=O)NN(C)C(=S)c1ccccc1)C(=S)c1ccccc1` was run?
Answer: inactive

Question: For `COc1cccc2cc(-c3nc(C4CCC(C(=O)O)CC4)n4ncnc(N)c34)[nH]c12` (stereo unspecified), which Potency is on record?
Answer: inconclusive: 15.3 µM [cytotoxic, partial curve]

Question: With `Cc1cc(C(=O)N2CCN(c3cccc(Cl)c3)CC2)n(-c2ccccc2)n1` as the compound, how does the Potency read?
Answer: inconclusive: 0.0077 µM [rising, full curve]

Question: For `CC1=C(CO)C(=O)O[C@@H]([C@@H](C)[C@H]2CC[C@H]3[C@@H]4C[C@H]5O[C@]56[C@@H](O)C=CC(=O)[C@]6(C)[C@H]4CC[C@]23C)C1`, which Potency is on record?
Answer: inconclusive: 5.95 µM [cytotoxic, single point]

Question: How did the Potency turn out when `NS(=O)(=O)c1ccc(Nc2nc(OCC3CCCCC3)c3[nH]cnc3n2)cc1` was run?
Answer: inactive

Question: With `CNc1nc(Nc2ccc(C(=O)N3CCOCC3)cc2OC)ncc1Cl` as the compound, how does the Potency read?
Answer: inactive

Question: How did the Potency turn out when `O=C1NC(=O)C(c2cnc3ccccn23)=C1c1cn2c3c(cccc13)CN(C(=O)N1CCOCC1)CC2` was run?
Answer: inconclusive: 0.0685 µM [rising, partial curve]

Question: How did the Potency turn out when `O=C(NOCC1CC1)c1ccc(F)c(F)c1Nc1ccc(I)cc1Cl` was run?
Answer: active: 21.7 µM

Question: For `Cc1ccc(-n2[nH]c(C)c(N=Nc3cccc(-c4cccc(C(=O)O)c4)c3O)c2=O)cc1C`, which Potency is on record?
Answer: inconclusive: 34.3 µM [cytotoxic, single point]

Question: Which Potency does the source give for `C1CCC(C(CC2CCCCN2)C2CCCCC2)CC1` (stereo unspecified) here?
Answer: inconclusive: 43.2 µM [cytotoxic, partial curve, poor fit]

Question: `CN(c1nccc(=O)[nH]1)C1CCN(c2nc3ccccc3n2Cc2ccc(F)cc2)CC1` was tested. Which Potency did it give?
Answer: inactive

Question: With `N=C(N)c1ccc(OCCCCCOc2ccc(C(=N)N)cc2)cc1` as the compound, how does the Potency read?
Answer: inconclusive: 30.6 µM [cytotoxic, single point]

Question: With `CC(C)Oc1ccc2c(=O)c(-c3ccccc3)coc2c1` as the compound, how does the Potency read?
Answer: inconclusive: 19.3 µM [cytotoxic, partial curve]

Question: `COc1cc(N2CCC(N3CCN(C)CC3)CC2)ccc1Nc1ncc(Cl)c(Nc2ccccc2S(=O)(=O)C(C)C)n1` was tested. Which Potency did it give?
Answer: active: 12.2 µM
